# PubChem BioAssay AID588842 (Broad Institute, 2011)
# All entries are inconclusive by the source's own rule. Clear calls are listed elsewhere.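 How the source made its calls: active means cytotoxic compounds whose fitted half-effect concentration is at most twice the top tested dose in every test run; inconclusive means test runs disagree, or a flat moderate drop, or a poor fit; inactive means inactive in every run, including wrong-direction effects.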
# Experiment: cytotoxicity in ldlA[mSR-BI] CHO cells, dose response, cytotoxicity control for HDL uptake inhibitor project, cell-based, CellTiter-Glo ATP, 24 h, dry powder, set 4 (AID 588842)
# Conditions: ldlA[mSR-BI] CHO cells viability; at 35 µM (top of the series)
# Summary of the method: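 Test system – ldlA[mSR-BI] cells · Amount – 4,000 cells/well · Medium – 10% FCS plus PSG in Ham's F12 · Times – 24 h compound treatment, 37 °C · Technique – luciferase luminescence reporting cellular ATP, CellTiter-Glo reagent · Read-out basis – IC50 from compound dose-response curves of cell viability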
smiles,measurement,value
CCOC(=O)N1CCC(NC(=O)c2ccc3c(c2)N(Cc2ccc(F)cc2)CCS3)CC1,"activity change, negative = cytotoxicity",inconclusive: -64.5%
